Measured values as given in article PMC5823910.
No constants are given. Whether binding was seen depends on the method and setting. Binding seen in cells or lysates may run through a third protein. Some entries that bind do so weakly or less than the wild type.

The chains behind the UniProt entries cited, without tags or fusion partners. Where a name states a change or a piece, a line headed by the entry shows the natural chain unless it says otherwise.
UniProt Q13315: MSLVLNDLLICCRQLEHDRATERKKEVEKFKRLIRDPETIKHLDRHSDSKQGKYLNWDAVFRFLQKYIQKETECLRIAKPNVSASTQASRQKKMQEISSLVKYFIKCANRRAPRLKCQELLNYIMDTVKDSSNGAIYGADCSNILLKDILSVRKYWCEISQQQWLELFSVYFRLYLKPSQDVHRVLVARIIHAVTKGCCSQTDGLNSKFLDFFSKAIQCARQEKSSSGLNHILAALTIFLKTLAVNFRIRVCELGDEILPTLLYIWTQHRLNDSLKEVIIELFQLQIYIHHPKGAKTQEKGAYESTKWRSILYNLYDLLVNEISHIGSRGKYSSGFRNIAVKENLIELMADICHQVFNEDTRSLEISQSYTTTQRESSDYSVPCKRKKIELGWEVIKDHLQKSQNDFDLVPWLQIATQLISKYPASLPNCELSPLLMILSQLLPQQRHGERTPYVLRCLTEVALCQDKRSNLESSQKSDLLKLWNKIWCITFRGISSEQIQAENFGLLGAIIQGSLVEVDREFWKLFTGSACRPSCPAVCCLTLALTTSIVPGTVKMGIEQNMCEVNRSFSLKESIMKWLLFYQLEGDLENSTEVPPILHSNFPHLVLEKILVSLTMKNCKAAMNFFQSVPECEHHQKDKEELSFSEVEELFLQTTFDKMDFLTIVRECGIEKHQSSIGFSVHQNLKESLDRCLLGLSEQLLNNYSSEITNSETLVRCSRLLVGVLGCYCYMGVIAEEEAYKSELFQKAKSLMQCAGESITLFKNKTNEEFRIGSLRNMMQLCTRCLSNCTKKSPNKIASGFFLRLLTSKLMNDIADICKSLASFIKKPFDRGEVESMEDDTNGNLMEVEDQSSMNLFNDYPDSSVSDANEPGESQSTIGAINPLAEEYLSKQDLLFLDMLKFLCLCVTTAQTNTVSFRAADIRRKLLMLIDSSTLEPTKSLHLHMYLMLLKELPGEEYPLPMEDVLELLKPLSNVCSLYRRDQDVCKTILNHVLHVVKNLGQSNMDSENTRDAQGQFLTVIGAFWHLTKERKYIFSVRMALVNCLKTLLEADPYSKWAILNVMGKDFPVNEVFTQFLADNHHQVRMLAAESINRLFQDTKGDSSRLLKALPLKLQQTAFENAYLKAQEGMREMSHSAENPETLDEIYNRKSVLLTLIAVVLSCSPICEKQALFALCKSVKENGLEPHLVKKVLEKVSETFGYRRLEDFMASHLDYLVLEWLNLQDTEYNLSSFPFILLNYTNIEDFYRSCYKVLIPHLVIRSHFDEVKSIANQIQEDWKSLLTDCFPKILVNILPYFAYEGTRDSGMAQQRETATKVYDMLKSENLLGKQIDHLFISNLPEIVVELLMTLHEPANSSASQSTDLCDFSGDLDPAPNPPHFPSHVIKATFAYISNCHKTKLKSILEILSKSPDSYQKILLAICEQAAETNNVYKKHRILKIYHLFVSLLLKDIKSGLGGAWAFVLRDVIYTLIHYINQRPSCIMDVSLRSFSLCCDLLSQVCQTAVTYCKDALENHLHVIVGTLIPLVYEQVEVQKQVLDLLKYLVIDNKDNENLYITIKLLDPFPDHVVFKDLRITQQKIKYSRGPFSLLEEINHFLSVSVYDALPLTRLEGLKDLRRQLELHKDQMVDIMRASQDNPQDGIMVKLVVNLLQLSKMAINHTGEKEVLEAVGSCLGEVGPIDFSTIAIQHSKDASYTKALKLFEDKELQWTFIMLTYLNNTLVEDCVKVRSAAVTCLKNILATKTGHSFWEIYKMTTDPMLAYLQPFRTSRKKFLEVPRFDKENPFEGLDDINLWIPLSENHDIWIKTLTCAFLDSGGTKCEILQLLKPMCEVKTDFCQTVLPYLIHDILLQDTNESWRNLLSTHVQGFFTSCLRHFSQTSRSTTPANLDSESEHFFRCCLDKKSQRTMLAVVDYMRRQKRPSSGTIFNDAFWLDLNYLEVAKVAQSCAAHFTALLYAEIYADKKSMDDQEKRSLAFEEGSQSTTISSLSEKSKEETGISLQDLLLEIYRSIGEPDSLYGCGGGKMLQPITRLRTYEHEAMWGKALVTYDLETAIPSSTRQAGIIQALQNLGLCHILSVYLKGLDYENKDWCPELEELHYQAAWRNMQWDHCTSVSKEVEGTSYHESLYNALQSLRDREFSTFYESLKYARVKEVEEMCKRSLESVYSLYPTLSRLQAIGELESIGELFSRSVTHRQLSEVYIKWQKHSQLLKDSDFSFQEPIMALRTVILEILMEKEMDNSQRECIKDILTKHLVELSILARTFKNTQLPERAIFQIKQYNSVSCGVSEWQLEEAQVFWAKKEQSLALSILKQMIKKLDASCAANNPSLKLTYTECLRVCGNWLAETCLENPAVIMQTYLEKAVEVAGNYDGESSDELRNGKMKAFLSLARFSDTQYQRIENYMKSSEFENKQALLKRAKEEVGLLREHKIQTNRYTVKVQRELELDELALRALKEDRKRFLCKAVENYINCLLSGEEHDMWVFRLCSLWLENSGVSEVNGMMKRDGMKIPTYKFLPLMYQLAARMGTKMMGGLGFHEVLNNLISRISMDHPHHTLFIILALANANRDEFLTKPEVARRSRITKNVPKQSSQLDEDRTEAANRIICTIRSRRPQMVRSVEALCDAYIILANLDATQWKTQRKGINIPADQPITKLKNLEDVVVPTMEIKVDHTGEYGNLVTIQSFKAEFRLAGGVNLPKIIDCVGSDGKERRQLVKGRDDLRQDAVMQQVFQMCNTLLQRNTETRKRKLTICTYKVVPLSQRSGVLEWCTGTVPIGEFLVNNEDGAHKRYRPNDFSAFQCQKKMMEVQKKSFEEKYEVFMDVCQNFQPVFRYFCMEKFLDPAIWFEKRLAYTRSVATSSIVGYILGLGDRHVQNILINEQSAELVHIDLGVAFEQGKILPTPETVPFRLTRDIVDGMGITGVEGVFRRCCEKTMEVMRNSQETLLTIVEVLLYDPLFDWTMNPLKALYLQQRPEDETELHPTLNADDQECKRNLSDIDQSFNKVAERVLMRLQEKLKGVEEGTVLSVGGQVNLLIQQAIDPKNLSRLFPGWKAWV

How the values were obtained:
[1] = biological target: ATM phosphorylated at S1981 (ataxia telangiectasia mutated) (human (endogenous in HCT116)) (UniProt Q13315); test: co-IP; HCT116 cells treated with 1 mM hydroxyurea and 2 µM MS-275 for 20 h, then 25 nM okadaic acid for further 4 h (also okadaic acid alone); cells fixed with 1% paraformaldehyde; IP with anti-pS1981-ATM antibody, controls rabbit pre-immune serum or no antibody; washes with 900 mM NaCl, 0.5% NP-40; western blot for pATM and PR130
[2] = biological target: ATM phosphorylated at S1981 (ataxia telangiectasia mutated) (human (endogenous in HCT116)) (UniProt Q13315); test: condition: only cells treated with hydroxyurea without MS-275; co-IP; as a1, but HCT116 cells treated with hydroxyurea individually, without MS-275 (Fig. 6d, right panel); IP with anti-pS1981-ATM antibody, western blot for PR130

B1: PR130, PP2A regulatory subunit encoded by PPP2R3A (protein, UniProt Q06190-1 1-1150)
chain: MAATYRLVVSTVNHYSSVVIDRRFEQAIHYCTGTCHTFTHGIDCIVVHHSVCADLLHIPVSQFKDADLNSMFLPHENGLSSAEGDYPQQAFTGIPRVKRGSTFQNTYNLKDIAGEAISFASGKIKEFSFEKLKNSNHAAYRKGRKVKSDSFNRRSVDLDLLCGHYNNDGNAPSFGLLRSSSVEEKPLSHRNSLDTNLTSMFLQNFSEEDLVTQILEKHKIDNFSSGTDIKMCLDILLKCSEDLKKCTDIIKQCIKKKSGSSISEGSGNDTISSSETVYMNVMTRLASYLKKLPFEFMQSGNNEALDLTELISNMPSLQLTPFSPVFGTEQPPKYEDVVQLSASDSGRFQTIELQNDKPNSRKMDTVQSIPNNSTNSLYNLEVNDPRTLKAVQVQSQSLTMNPLENVSSDDLMETLYIEEESDGKKALDKGQKTENGPSHELLKVNEHRAEFPEHATHLKKCPTPMQNEIGKIFEKSFVNLPKEDCKSKVSKFEEGDQRDFTNSSSQEEIDKLLMDLESFSQKMETSLREPLAKGKNSNFLNSHSQLTGQTLVDLEPKSKVSSPIEKVSPSCLTRIIETNGHKIEEEDRALLLRILESIEDFAQELVECKSSRGSLSQEKEMMQILQETLTTSSQANLSVCRSPVGDKAKDTTSAVLIQQTPEVIKIQNKPEKKPGTPLPPPATSPSSPRPLSPVPHVNNVVNAPLSINIPRFYFPEGLPDTCSNHEQTLSRIETAFMDIEEQKADIYEMGKIAKVCGCPLYWKAPMFRAAGGEKTGFVTAQSFIAMWRKLLNNHHDDASKFICLLAKPNCSSLEQEDFIPLLQDVVDTHPGLTFLKDAPEFHSRYITTVIQRIFYTVNRSWSGKITSTEIRKSNFLQTLALLEEEEDINQITDYFSYEHFYVIYCKFWELDTDHDLYISQADLSRYNDQASSSRIIERIFSGAVTRGKTIQKEGRMSYADFVWFLISEEDKRNPTSIEYWFRCMDVDGDGVLSMYELEYFYEEQCERMEAMGIEPLPFHDLLCQMLDLVKPAVDGKITLRDLKRCRMAHIFYDTFFNLEKYLDHEQRDPFAVQKDVENDGPEPSDWDRFAAEEYETLVAEESAQAQFQEGFEDYETDEPASPSEFGNKSNKILSASLPEKCGKLQSVDEE
- binding [1]: binds
- binding [2]: no binding
